In the supplement of paper PMC6411743:
± gives the standard deviation of the averaged measurements. The list shows a part of the results, in another mix than the full data. Most values lie at the level of the controls, where differences are scatter.

Compound: Nc1ncnc2c1ncn2[C@@H]1O[C@H](COP(=O)(O)OP(=O)(O)NP(=O)(O)O)[C@@H](O)[C@H]1O [adenylyl imidodiphosphate]
Experiment: NP40-soluble protein abundance relative to vehicle (solubility fold change) (ratio); higher = more soluble protein in presence of AMP-PNP
Outline: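 Jurkat crude lysate (Dounce-homogenised) was treated with eight concentrations from 0.1 to 10 mM for 10 min at room temperature, then 3 min at 37 °C. It was solubilised with 0.8% NP40 and benzonase (60 min, 4 °C) and ultracentrifuged, and the supernatant was TMT-labelled for LC-MS/MS. Intensities were vsn-normalised, and the value is the fold change against the NP40-processed vehicle per replicate, from three independent experiments.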

Target	NP40-soluble protein abundance (concentration: 0.1mM)	NP40-soluble protein abundance (concentration: 0.5mM)
A0A0A0MRY0|Q8WUA7 and related entries (UniProt Q8WUA7)	0.987 ± 0.018	1.04 ± 0.058
A0A0G2JPT5|O75943 and related entries (UniProt O75943)	0.9944 ± 0.0034	0.984 ± 0.034
A0A0A6YYJ5|E9PLY5 and related entries (UniProt Q9UPN3+H3BQK9+H3BPE1+E9PLY5)	0.979 ± 0.025	0.979 ± 0.029
A0A087WYU1|A0A087WZW2|Q9Y5X1 (UniProt Q9Y5X1)	0.997 ± 0.03	1.06 ± 0.012
A0A0B4J220 (UniProt E9PRG8)	1.11 ± 0.051	1.149 ± 0.0064
A0A087X117|A0A0G2JN29|Q15155 (UniProt Q15155)	1.02 ± 0.012	1.008 ± 0.007
A0A0A0MSY7|E5KNQ5 and related entries (UniProt O00142)	1.01 ± 0.053	0.991 ± 0.044
A0A096LPC5|A0A0A0MR88|Q9Y4E1 and related entries (UniProt Q9Y4E1)	1 ± 0.011	1.01 ± 0.055
A0A0D9SG71|P49459 (UniProt P49459)	1.02 ± 0.029	1.02 ± 0.039
A0A0D9SEI3|A0A0D9SEN2|A0A0D9SER5|B7ZVY7 and related entries (UniProt J3QR44+P21127+B7ZVY7)	0.984 ± 0.021	0.9724 ± 0.0021
A0A0B4J1Z1|C9JAB2 and related entries (UniProt Q16629)	1.05 ± 0.016	1.04 ± 0.035
A0A0G2JHC2|Q6NYC8 (UniProt Q6NYC8)	1.01 ± 0.024	1.04 ± 0.039
A0A096LP75|C4AMC7 and related entries (UniProt Q6VEQ5+C4AMC7)	0.99 ± 0.053	0.977 ± 0.092
A0A087WXR2|F5H1Z6 and related entries (UniProt Q9Y365)	1.01 ± 0.033	1.03 ± 0.053
A2A2V1 and related entries (UniProt P04156+A2A2V1)	1.05 ± 0.069	1 ± 0.042
MEX3A (UniProt A1L020)	1 ± 0.012	0.984 ± 0.027
A0A087X0Q1|Q7Z739 (UniProt Q7Z739)	0.986 ± 0.023	1 ± 0.047
A0A0C4DGB5|P20810-10|P20810-6 (UniProt P20810)	0.953 ± 0.023	1.01 ± 0.061
A0A0A0MSK6|Q13017 and related entries (UniProt Q13017)	1 ± 0.039	0.993 ± 0.021
A0A0A0MRR5|Q96BW1 and related entries (UniProt Q96BW1)	1.03 ± 0.028	0.984 ± 0.043
A0A087X0M0|Q7Z5L2 and related entries (UniProt Q7Z5L2)	0.97 ± 0.032	0.968 ± 0.025

Target	NP40-soluble protein abundance (concentration: 0.1mM)	NP40-soluble protein abundance (concentration: 0.5mM)
A0A0G2JNT7|A0A0G2JQF4|Q7Z3B3 and related entries (UniProt Q7Z3B3)	0.963 ± 0.035	0.981 ± 0.05
A0A087X0R6|Q9UMY4 and related entries (UniProt Q9UMY4)	1.11 ± 0.063	1.07 ± 0.029
A0A087X159|P81877 and related entries (UniProt P81877)	0.993 ± 0.039	0.997 ± 0.031
A0A087X2I1|P62333 (UniProt P62333)	0.997 ± 0.023	0.971 ± 0.043
A0A0B4J2A4|K7EME0 and related entries (UniProt P42765)	0.984 ± 0.011	1.01 ± 0.032
A0A087X0H7|Q8NEL9 and related entries (UniProt Q8NEL9)	1.01 ± 0.035	1.02 ± 0.028
A0A0G2JK44|A0A140T9E9|H0Y6K2 and related entries (UniProt P25440)	0.964 ± 0.015	0.98 ± 0.035
A0A0U1RQK7|A0A0A0MSA7|O43432 and related entries (UniProt O43432)	0.9889 ± 0.0049	0.989 ± 0.03
A0A087WY96|P31641 (UniProt P31641)	1 ± 0.013	1.04 ± 0.018
A0A0A0MTB0|A0A0J9YYI4|D6RHG7 and related entries (UniProt Q86VE9)	1.02 ± 0.043	0.978 ± 0.047
A0A087X0V5|P29728 and related entries (UniProt P29728)	1.04 ± 0.019	1.08 ± 0.086
A0A0C4DGS0|P56556 and related entries (UniProt P56556)	1.02 ± 0.042	1.02 ± 0.048
A0A0C4DGG9|F5GWX5 and related entries (UniProt Q14839)	0.985 ± 0.018	1.01 ± 0.026
A0A0A0MRJ6|C9J0F2 and related entries (UniProt P22061)	1.01 ± 0.037	1.01 ± 0.028
A0A087WWH3|Q9NZM4 and related entries (UniProt Q9NZM4)	1.033 ± 0.0084	1.02 ± 0.027
A0A087X0C8|O15484 and related entries (UniProt O15484)	0.995 ± 0.01	0.997 ± 0.054
A0A087WXI0 (UniProt Q7Z6P3)	1.04 ± 0.027	1.01 ± 0.022
A0A0U1RQQ9|Q6P3W7 (UniProt Q6P3W7)	0.998 ± 0.018	1 ± 0.029
A0A0A0MT23|A0A0A0MST9 (UniProt P27448)	1.05 ± 0.03	1.05 ± 0.0066
A0A087WXD1|Q96T83 (UniProt Q96T83)	0.98 ± 0.039	0.987 ± 0.039

Nothing new here: entries from further up.
Target	NP40-soluble protein abundance (concentration: 0.1mM)	NP40-soluble protein abundance (concentration: 0.5mM)
A0A0B4J2A4|K7EME0 and related entries (UniProt P42765)	0.984 ± 0.011	1.01 ± 0.032
A0A087X0H7|Q8NEL9 and related entries (UniProt Q8NEL9)	1.01 ± 0.035	1.02 ± 0.028
A0A0G2JK44|A0A140T9E9|H0Y6K2 and related entries (UniProt P25440)	0.964 ± 0.015	0.98 ± 0.035
A0A0U1RQK7|A0A0A0MSA7|O43432 and related entries (UniProt O43432)	0.9889 ± 0.0049	0.989 ± 0.03
A0A087WY96|P31641 (UniProt P31641)	1 ± 0.013	1.04 ± 0.018
A0A0A0MTB0|A0A0J9YYI4|D6RHG7 and related entries (UniProt Q86VE9)	1.02 ± 0.043	0.978 ± 0.047
A0A087X0V5|P29728 and related entries (UniProt P29728)	1.04 ± 0.019	1.08 ± 0.086
A0A0C4DGS0|P56556 and related entries (UniProt P56556)	1.02 ± 0.042	1.02 ± 0.048
A0A0C4DGG9|F5GWX5 and related entries (UniProt Q14839)	0.985 ± 0.018	1.01 ± 0.026
A0A0A0MRJ6|C9J0F2 and related entries (UniProt P22061)	1.01 ± 0.037	1.01 ± 0.028
A0A087WWH3|Q9NZM4 and related entries (UniProt Q9NZM4)	1.033 ± 0.0084	1.02 ± 0.027
A0A087X0C8|O15484 and related entries (UniProt O15484)	0.995 ± 0.01	0.997 ± 0.054
